# Laboratory results: PubChem BioAssay AID1259267 (Sanger Institute, 2017)
# Assay: 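Which kinases and bowel-cancer genes GP5D cells need, with or without anchor drugs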 (primary screen)
# System: human GP5D colorectal cancer cells
# Knock-down reagent: siRNA pool against human genes
# Conditions: anchor drugs at low dose: BYL719 1 µM, cetuximab 5 µg/ml, trametinib 10 nM, or DMSO vehicle
# Measured: 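Mean replicate viability versus non-targeting pool, given as knock-down-alone robust z-score, DMSO fraction, and synergy with low-dose BYL719, cetuximab or trametinib (1 µM, 5 µg/ml, 10 nM)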
# Scale: robust z-score, knock-down alone and viability with DMSO: higher = more viable cells
# Active means: 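Active (essential alone) if knock-down without drug gives robust z-score under -3; drug synergy does not count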
# Meaning of the calls: active = essential alone; inactive = not essential
# This is an unselected part of 794 deposited reagents. Over the whole deposit, 9 (1.1%) are marked active. 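Viability capped at 1; calls reflect loss of viability from knock-down alone, not synergy with drugs.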 Not all columns of the deposit are shown. Not stated in the record: the amount of reagent, the time to read-out.
gene,"robust z-score, knock-down alone",viability with DMSO (fraction of control),Call
PAK3,0.425,0.917,inactive
MAGI3,-0.327,0.758,inactive
KRAS,-1.99,0.404,inactive
DBF4,0.817,1,inactive
STK26,0.817,1,inactive
OXSR1,-0.109,0.804,inactive
PDPK1,0.0941,0.847,inactive
MAP3K5,0.231,0.876,inactive
RYK,0.817,1,inactive
RIOK3,0.568,0.947,inactive
EIF2AK3,0.817,1,inactive
WNK4,-0.228,0.779,inactive
CHEK2,0.683,0.971,inactive
NME3,0.0925,0.846,inactive
RIPK4,0.812,0.999,inactive
CHEK1,-2.19,0.363,inactive

Copied from the listing for reference:
gene,"robust z-score, knock-down alone",viability with DMSO (fraction of control),Call
NME3,0.0925,0.846,inactive
RIPK4,0.812,0.999,inactive

The results go on:
gene,"robust z-score, knock-down alone",viability with DMSO (fraction of control),Call
NME1,-1.48,0.513,inactive
LMBR1,0.817,1,inactive
CLSPN,0.221,0.874,inactive
NUCKS1,0.817,1,inactive
PDIK1L,0.817,1,inactive
MOK,-0.553,0.71,inactive
MAPK8,0.817,1,inactive
PKLR,-2.39,0.32,inactive
EPHA2,0.285,0.887,inactive
GRK5,0.691,0.973,inactive
PRKCI,0.817,1,inactive
NEK2,0.183,0.866,inactive
CAMK2B,0.233,0.876,inactive
MERTK,-0.917,0.633,inactive
CDC42BPG,0.817,1,inactive
STK36,0.171,0.863,inactive
FOXP1,0.55,0.943,inactive
CDK18,-2.78,0.238,inactive
